Laboratory results taken from paper PMC9354775.
Results are given in words; binding and its absence hold for the method and conditions named. In cells and extracts the contact can be indirect. These calls come from enrichment with a bait or labelling near it, and not all partners need be listed.

The chains behind the UniProt entries cited, without tags or fusion partners.
UniProt Q6WWW4: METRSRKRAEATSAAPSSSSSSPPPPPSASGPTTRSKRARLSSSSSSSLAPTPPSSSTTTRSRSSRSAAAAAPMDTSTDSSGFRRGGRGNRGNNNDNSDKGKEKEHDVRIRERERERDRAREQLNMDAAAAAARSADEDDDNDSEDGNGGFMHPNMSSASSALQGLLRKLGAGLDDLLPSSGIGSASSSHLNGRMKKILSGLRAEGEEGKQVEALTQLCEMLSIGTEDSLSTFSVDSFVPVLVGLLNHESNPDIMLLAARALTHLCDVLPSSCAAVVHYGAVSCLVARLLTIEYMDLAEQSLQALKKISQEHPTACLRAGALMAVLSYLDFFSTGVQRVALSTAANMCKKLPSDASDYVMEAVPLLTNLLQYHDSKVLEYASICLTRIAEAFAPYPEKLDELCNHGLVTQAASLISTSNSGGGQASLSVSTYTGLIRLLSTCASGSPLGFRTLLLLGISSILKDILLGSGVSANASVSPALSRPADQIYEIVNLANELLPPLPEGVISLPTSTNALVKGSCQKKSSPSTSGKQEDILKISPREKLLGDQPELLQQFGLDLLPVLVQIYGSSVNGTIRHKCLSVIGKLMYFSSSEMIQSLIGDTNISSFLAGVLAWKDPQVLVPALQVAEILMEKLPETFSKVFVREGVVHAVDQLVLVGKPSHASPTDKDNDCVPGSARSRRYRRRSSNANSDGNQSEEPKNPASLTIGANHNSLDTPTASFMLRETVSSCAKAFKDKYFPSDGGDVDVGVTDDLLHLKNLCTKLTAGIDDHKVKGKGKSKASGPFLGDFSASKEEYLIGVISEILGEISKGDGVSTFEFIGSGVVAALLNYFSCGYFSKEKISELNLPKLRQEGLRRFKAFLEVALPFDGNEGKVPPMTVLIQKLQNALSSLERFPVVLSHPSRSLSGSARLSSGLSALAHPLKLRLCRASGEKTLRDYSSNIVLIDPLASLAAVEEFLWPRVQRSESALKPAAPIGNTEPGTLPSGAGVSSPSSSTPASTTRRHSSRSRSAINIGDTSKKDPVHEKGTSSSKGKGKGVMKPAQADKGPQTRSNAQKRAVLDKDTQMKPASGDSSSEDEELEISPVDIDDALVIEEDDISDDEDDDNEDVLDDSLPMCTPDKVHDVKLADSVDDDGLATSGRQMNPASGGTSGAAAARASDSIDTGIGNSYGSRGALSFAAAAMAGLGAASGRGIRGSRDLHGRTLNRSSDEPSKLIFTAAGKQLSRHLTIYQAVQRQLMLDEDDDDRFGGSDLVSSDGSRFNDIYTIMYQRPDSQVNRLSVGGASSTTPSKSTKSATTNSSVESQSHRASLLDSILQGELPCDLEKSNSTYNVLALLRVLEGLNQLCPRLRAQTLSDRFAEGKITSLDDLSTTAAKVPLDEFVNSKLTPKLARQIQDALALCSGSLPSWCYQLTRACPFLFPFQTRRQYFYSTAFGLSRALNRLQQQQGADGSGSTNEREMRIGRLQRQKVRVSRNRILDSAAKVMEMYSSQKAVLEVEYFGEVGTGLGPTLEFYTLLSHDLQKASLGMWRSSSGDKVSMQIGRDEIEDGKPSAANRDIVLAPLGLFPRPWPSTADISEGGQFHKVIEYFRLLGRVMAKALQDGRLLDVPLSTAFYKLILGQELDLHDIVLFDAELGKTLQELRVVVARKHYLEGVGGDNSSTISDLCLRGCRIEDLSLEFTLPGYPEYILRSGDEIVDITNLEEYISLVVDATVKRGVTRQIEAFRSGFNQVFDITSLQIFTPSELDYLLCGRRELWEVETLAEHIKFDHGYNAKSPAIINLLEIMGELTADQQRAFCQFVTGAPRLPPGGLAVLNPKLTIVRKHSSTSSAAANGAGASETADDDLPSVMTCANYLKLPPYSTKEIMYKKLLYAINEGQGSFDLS

Biological target: UPL3-GFP (A. thaliana) (UniProt Q6WWW4)
Test: affinity purification with mass spectrometry; GFP nanotrap (GBP beads) on lysate of rosette leaves of 6-wk-old ACTIN3:UPL3-GFP plants; IP buffer 50 mM Tris-HCl pH 7.4, 150 mM NaCl, 1 mM EDTA, 1% Nonidet P-40, 10% glycerol; 4°C, 2 h; hits of ACTIN3:GFP control plants subtracted

binding	Binder
binds	5-methyltetrahydropteroyl-triglutamate, homocysteine methyltransferase 2 (MS2) (enzyme, UniProt Q9SRV5 1-765) MASHIVGYPRMGPKRELKFALESFWDGKSSADDLQKVSADLRSDIWKQMSAAGIKYIPSNTFSHYDQVLDTTAMLGAVPSRYGFTSGEIGLDVYFSMARGNASVPAMEMTKWFDTNYHYIVPELGPEVKFSYASHKAVNEYKEAKALGVETVPVLVGPVSYLLLSKLAKGVDKSFDLLSLLPKILPVYKEVIAELKAAGASWIQLDEPLFVMDLEGHKLQAFSGAYAELESTLSGLNVLVETYFADIPAEAYKTLTSLKGVTAFGFDLVRGTKTIDLIKSGFPQGKYLFAGVVDGRNIWANDLAASLITLQSLEGVVGKDKLVVSTSCSLLHTAVDLINETKLDAEIKSWLAFAAQKVVEVDALAKALAGQTNESFFTANADALSSRRSSPRVTNESVQKAAAALKGSDHRRTTEVSARLDAQQKKLNLPILPTTTIGSFPQTVELRRVRREYKAKKISEEDYVKAIKEEIKKVVDIQEDLDIDVLVHGEPERNDMVEYFGEQLSGFAFTANGWVQSYGSRCVKPPVIYGDVSRPKPMTVFWSSTAQSMTKRPMKGMLTGPVTILNWSFVRNDQPRHETCYQIALAIKDEVEDLEKGGIGVIQIDEAALREGLPLRKAEHSFYLDWAVHSFRITNCGVQDSTQIHTHMCYSNFNDIIHSIIDMDADVITIENSRSDEKLLSVFREGVKYGAGIGPGVYDIHSPRIPSTDEIADRINKMLAVLEQNILWVNPDCGLKTRKYTEVKPALKAMVDAAKLIRSQLGSAK
binds	UBP26 (enzyme, UniProt Q9SCJ9 1-1067) MSRPNTRNKNKRQRPDAVDSSSQILRKIHEANDVTDDDINQLFMIWKPVCQGCRVNTRDNPNCFCGLVPPLNGSRKSGLWQKTSEIIQSLGPDPTLDRRDSESTPAGLTNLGATCYANSILQCLYMNTAFREGVFSVEVHVLKQNPVLDQIARLFAQLHASQKSFVDSDAFVKTLELDNGVQQDTHEFLTLLLSLLERCLLHSGVKAKTIVQDLFSGSVSHVTTCSKCGRDSEASSKMEDFYALELNVKGLKSLDASLNDYLSLEQLNGDNQYFCGSCNARVDATRCIKLRTLPPVITFQLKRCIFLPKTTAKKKITSSFSFPQVLDMGSRLAESSQNKLTYDLSAVLIHKGSAVNSGHYVAHIKDEKTGLWWEFDDEHVSELGKRPCNEASSSTPQSESNGTASSGNITDGIQSGSSDCRSAIKSEVFSSSDAYMLMYSLRCDKQENQEGQKENPIDITKGEVKQLKGGYLPKHLSEWINNMNAVFLESCKQYNLRKEKELNALTERRQEVRTILSEAAVQSLEEQYFWISTDWLRLWADTTLPPALDNTPLLCSHGKVHASKVNCMKRISELAWIKLESKFNGGPKLGKGDYCRDCLMDGARMVVSSDSYRDRRTFMKSIANDVLSGKCEDGMYYISRAWLQQWIKRKNLDAPTEADAGPTNAITCNHGELMPEQAPGAKRVVVPENFWSFLFEDALKVMSEDTLDCTCFPVDSSQCCHCTEVLSEVACFEDSLRTLKVKQRQNHEKLATGKGIPLTPQSRYFLLPSPWLVQWRIYINMTGKNSSSAPEPERLDGVINTLKCKKHTRLLERLPELVCRRGSYFQKNPSTDKLTIIPELDWKYFCDEWGGLMENGISAFIEVGNTDQSSSPDVIDLEKDSSPDDNMDVDAQQLILRASPEICEECIGERESCELMQKLSYSEGDVFVCFVRGKEAPKAMLEASDSSFEVDRRTSKRSRRTNYGNLTSLKVSATTTVYQLKMMIWELLGVMKENQELHKGSKVIDQESATLADMNIFPGDRLWVRDTEMHEHRDIADELCEKKPGAQDIEEGFRGTLLTGNISSEAC
binds	phosphoenolpyruvate carboxylase 2 (PPC2) (enzyme, UniProt Q5GM68 1-963) MAARNLEKMASIDAQLRLLAPGKVSEDDKLIEYDALLLDRFLDILQDLHGEDVREFVQECYEVAADYDGNRNTEKLEELGNMLTSLDPGDSIVVTKSFSNMLSLANLAEEVQIAYRRRIKKLKKGDFADEASATTESDIEETLKRLLQLNKTPEEVFDALKNQTVDLVLTAHPTQSVRRSLLQKFGRIRDCLTQLYAKDITPDDKQELDEALQREIQAAFRTDEIRRTPPTPQDEMRAGMSYFHETIWKGVPKFLRRVDTALKNIGINERVPYNAPLIQFSSWMGGDRDGNPRVTPEVTRDVCLLARMMAANLYFSQIEDLMFEMSMWRCNEELRVRAERQRCAKRDAKHYIEFWKQIPANEPYRAILGDVRDKLYNTRERARQLLSSGVSDVPEDAVFTSVDQFLEPLELCYRSLCDCGDRPIADGSLLDFLRQVSTFGLALVKLDIRQESERHSDVLDAITTHLGIGSYKEWSEDKRQEWLLSELSGKRPLFGPDLPKTEEVADVLDTFKVISELPSDSFGAYIISMATAPSDVLAVELLQRECGITDPLRVVPLFEKLADLESAPAAVARLFSIEWYRNRINGKQEVMIGYSDSGKDAGRLSAAWQLYKTQEELVKVAKEYGVKLTMFHGRGGTVGRGGGPTHLAILSQPPDTIHGQLRVTVQGEVIEQSFGEEHLCFRTLQRFTAATLEHGMHPPVSPKPEWRVLMDEMAIIATEEYRSVVFKEPRFVEYFRLATPELEYGRMNIGSRPSKRKPSGGIESLRAIPWIFAWTQTRFHLPVWLGFGGAFKRVIQKDSKNLNMLKEMYNQWPFFRVTIDLVEMVFAKGDPGIAALYDRLLVSEELQPFGEQLRVNYQETRRLLLQVAGHKDILEGDPYLRQRLQLRDPYITTLNVCQAYTLKQIRDPSFHVKVRPHLSKDYMESSPAAELVKLNPKSEYAPGLEDTVILTMKGIAAGMQNTG
binds	UBP13 (enzyme, UniProt Q84WU2 1-1115) MTMMTPPPLDQQEDEEMLVPNPDLVEGPQPMEVAQTDPAATAVENPPPEDPPSLKFTWTIPMFTRLNTRKHYSDVFVVGGYKWRILIFPKGNNVDHLSMYLDVADAANLPYGWSRYSQFSLAVVNQVNNRYSIRKETQHQFNARESDWGFTSFMPLSELYEPTRGYLVNDTVLIEAEVAVRKVLDYWSYDSKKETGFVGLKNQGATCYMNSLLQTLYHIPYFRKAVYHMPTTENDAPTASIPLALQSLFYKLQYNDTSVATKELTKSFGWDTYDSFMQHDVQELNRVLCEKLEDKMKGTVVEGTIQKLFEGHHMNYIECINVDYKSTRKESFYDLQLDVKGCKDVYASFDKYVEVERLEGDNKYHAEGHDLQDAKKGVLFIDFPPVLQLQLKRFEYDFMRDTMVKINDRYEFPLQLDLDREDGRYLSPDADKSVRNLYTLHSVLVHSGGVHGGHYYAFIRPTLSDQWYKFDDERVTKEDVKRALEEQYGGEEELPQNNPGFNNPPFKFTKYSNAYMLVYIRESDKDKIICNVDEKDIAEHLRVRLKKEQEEKEDKRKYKAQAHLFTTIKVARDDDITEQIGKNIYFDLVDHEKVRSFRIQKQTPFQQFKEEVAKEFGVPVQLQRFWIWAKRQNHTYRPNRPLSPNEELQTVGQIREASNKANNAELKLFLEIERGPDDLPIPPPEKTSEDILLFFKLYDPENAVLRYVGRLMVKSSSKPMDIVGQLNKMAGFAPDEEIELFEEIKFEPCVMCEQIDKKTSFRLCQIEDGDIICYQKPLSIEESEFRYPDVPSFLEYVQNRELVRFRTLEKPKEDEFTMELSKLHTYDDVVERVAEKLGLDDPSKLRLTSHNCYSQQPKPQPIKYRGVDHLSDMLVHYNQTSDILYYEVLDIPLPELQGLKTLKVAFHSATKDEVIIHNIRLPKQSTVGDVINELKTKVELSHQDAELRLLEVFFHKIYKIFPSTERIENINDQYWTLRAEEIPEEEKNIGPNDRLIHVYHFTKEAGQNQQVQNFGEPFFLVIHEGETLEEIKTRIQKKLHVPDEDFAKWKFASFSMGRPDYLLDTDVVYNRFQRRDVYGAWEQYLGLEHIDNAPKRAYAANQNRHAYEKPVKIYN
binds	LOS1 (protein, UniProt Q9ASR1 1-843) MVKFTADELRRIMDYKHNIRNMSVIAHVDHGKSTLTDSLVAAAGIIAQEVAGDVRMTDTRADEAERGITIKSTGISLYYEMTDESLKSFTGARDGNEYLINLIDSPGHVDFSSEVTAALRITDGALVVVDCIEGVCVQTETVLRQALGERIRPVLTVNKMDRCFLELQVDGEEAYQTFSRVIENANVIMATYEDPLLGDVQVYPEKGTVAFSAGLHGWAFTLTNFAKMYASKFGVVESKMMERLWGENFFDPATRKWSGKNTGSPTCKRGFVQFCYEPIKQIIATCMNDQKDKLWPMLAKLGVSMKNDEKELMGKPLMKRVMQTWLPASTALLEMMIFHLPSPHTAQRYRVENLYEGPLDDQYANAIRNCDPNGPLMLYVSKMIPASDKGRFFAFGRVFAGKVSTGMKVRIMGPNYIPGEKKDLYTKSVQRTVIWMGKRQETVEDVPCGNTVAMVGLDQFITKNATLTNEKEVDAHPIRAMKFSVSPVVRVAVQCKVASDLPKLVEGLKRLAKSDPMVVCTMEESGEHIVAGAGELHLEICLKDLQDDFMGGAEIIKSDPVVSFRETVCDRSTRTVMSKSPNKHNRLYMEARPMEEGLAEAIDDGRIGPRDDPKIRSKILAEEFGWDKDLAKKIWAFGPETTGPNMVVDMCKGVQYLNEIKDSVVAGFQWASKEGPLAEENMRGICFEVCDVVLHSDAIHRGGGQVIPTARRVIYASQITAKPRLLEPVYMVEIQAPEGALGGIYSVLNQKRGHVFEEMQRPGTPLYNIKAYLPVVESFGFSSQLRAATSGQAFPQCVFDHWEMMSSDPLEPGTQASVLVADIRKRKGLKEAMTPLSEFEDKL
